The values that follow come from PMC11405865.

For one assay, the target named is T1, PQM-1::FLAG (C. elegans) (UniProt G5EFY7).
T1 sequence: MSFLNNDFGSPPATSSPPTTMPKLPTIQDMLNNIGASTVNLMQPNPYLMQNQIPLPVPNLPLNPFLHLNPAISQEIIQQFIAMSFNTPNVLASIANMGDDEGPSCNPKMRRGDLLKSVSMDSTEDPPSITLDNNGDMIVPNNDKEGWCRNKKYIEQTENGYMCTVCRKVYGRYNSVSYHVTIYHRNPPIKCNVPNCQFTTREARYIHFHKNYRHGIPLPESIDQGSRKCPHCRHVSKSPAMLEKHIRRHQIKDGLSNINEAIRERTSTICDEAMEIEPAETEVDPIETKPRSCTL
Briefly: co-IP; HEK293T cells co-expressing the tagged proteins, lysed 48 h post transfection; supernatant incubated with Anti-GFP or Anti-DYKDDDDK affinity beads 2-4 h at 4 °C; washed with lysis buffer and wash buffer (20 mM Tris, 150 mM KCl, 0.5% NP-40, 1 mM EDTA, 10% glycerol, pH 7.5); western blot for GFP and FLAG. For orientation: Immunoblotting shows a protein as a band on a membrane.

The target in the next assay is T2, ELT-3::FLAG (C. elegans) (UniProt B7WN96).
T2 sequence: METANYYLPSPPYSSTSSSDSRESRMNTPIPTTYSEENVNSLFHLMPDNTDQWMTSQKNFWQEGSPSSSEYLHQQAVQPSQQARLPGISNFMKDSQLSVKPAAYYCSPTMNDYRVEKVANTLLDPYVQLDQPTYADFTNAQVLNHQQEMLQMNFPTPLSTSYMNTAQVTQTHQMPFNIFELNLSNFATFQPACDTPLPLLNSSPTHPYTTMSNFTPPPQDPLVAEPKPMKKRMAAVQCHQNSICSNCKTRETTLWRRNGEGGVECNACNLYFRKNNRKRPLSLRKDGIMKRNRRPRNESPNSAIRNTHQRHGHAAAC
Described as above.

These are yes or no findings as the source states them, for the method shown. In cells and extracts the contact can be indirect. Some results given as binding are weak or reduced against the parent protein; the word gives no strength. Where a sequence is shown, tags or fusion partners need not be part of it.

B1: GFP::HMP-2 (protein, UniProt O44326 1-678)
chain: MLLHSTNSYSIFTDHEVETRTSRIRSAMFPDWIPPTSAAEATNSTTSIVEMMQMPTQQLKQSVMDLLTYEGSNDMSGLSLPDLVKLMCDHDESVVARAVHRAYMLSREDPNFFNAPGFDHRSFVEALMAASKSSNVNVRRNAIGALSHMSEQRGGPLLIFRSGGLAEIIRMLYDSLESVVHYAVTTLRNLLMHVSDSRAQARALNAVEALTPHLHKTNPKLLAQVADGLYFLLIDDAPSKITFLSLLGPQILVSILREYSDHRKLIYTVVRCIRSLSVCPSNKPALISLGCLPALYVELCTAKDERSQTAILVAMRNLSDSATNEENLTQLIIKLLEIIRVANDGMTACACGTLSNLTCNNTRNKQTVCSHGGIDALVTAIRRLPEVEEVTEPALCALRHCTARHSLAEEAQSELRFCQAFPVILDQLETLRTPVIKAALGVIRNSALLQTNLIELTQEQTANGHTAVSLTMDILRRAITAIEENPDIAVDGVPMWGVIEGAVSALHQLANHPAVAAACCDDIGQVGNPECPPFLDLLHRLLAHPRLGSMDDEVLEREILGLLYQLSKRPDGARAVESTGVSALLMESRGSQYKSVVTYANGVLSNLKRGDSAAIMNMSNSYDYEMSGSAADWQRDGLERELFAEMYPTNDGGHSESINMALNNSQMRPNHNWYDTDL
Consider B1, for which the binding entry with PQM-1::FLAG (C. elegans) and with ELT-3::FLAG (C. elegans) was “binds” throughout.
